In one assay the target is CDKN1B-FLAG (UniProt P46527). Description: co-IP; exogenous Co-IP from HEK293T cells, NP-40 lysis buffer; anti-FLAG antibody on Protein A/G agarose beads, incubated overnight with cell extracts at 4 °C; immunoblot with anti-HA and anti-FLAG.
Assay [1] concerns the target CDKN1B (P27), endogenous (human (endogenous in U87 or LN229)) (UniProt P46527). Kind of assay: co-IP; endogenous Co-IP from U87 or LN229 cell lysate with anti-CDC20 or anti-CDKN1B antibody, control IgG as negative control; immunoblot with anti-CDC20 and anti-CDKN1B. Background: Immunoblotting shows a protein as a band on a membrane.
Assay [2] concerns the target CDC20 (of the Co-IP in Fig. S5B) (UniProt Q12834). Kind of assay: co-IP; Co-IP of PRMT6 and CDC20 (Fig. S5B); cells, constructs and antibodies not told in the text shown.

The chains behind the UniProt entries cited, without tags or fusion partners. Where a name states a change or a piece, a line headed by the entry shows the natural chain unless it says otherwise.
UniProt P46527: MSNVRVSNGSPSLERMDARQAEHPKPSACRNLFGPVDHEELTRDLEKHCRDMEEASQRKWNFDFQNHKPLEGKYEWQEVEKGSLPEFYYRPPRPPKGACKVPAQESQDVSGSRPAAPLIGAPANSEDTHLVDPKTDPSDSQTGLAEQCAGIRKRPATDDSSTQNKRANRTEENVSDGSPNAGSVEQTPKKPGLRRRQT
UniProt Q12834: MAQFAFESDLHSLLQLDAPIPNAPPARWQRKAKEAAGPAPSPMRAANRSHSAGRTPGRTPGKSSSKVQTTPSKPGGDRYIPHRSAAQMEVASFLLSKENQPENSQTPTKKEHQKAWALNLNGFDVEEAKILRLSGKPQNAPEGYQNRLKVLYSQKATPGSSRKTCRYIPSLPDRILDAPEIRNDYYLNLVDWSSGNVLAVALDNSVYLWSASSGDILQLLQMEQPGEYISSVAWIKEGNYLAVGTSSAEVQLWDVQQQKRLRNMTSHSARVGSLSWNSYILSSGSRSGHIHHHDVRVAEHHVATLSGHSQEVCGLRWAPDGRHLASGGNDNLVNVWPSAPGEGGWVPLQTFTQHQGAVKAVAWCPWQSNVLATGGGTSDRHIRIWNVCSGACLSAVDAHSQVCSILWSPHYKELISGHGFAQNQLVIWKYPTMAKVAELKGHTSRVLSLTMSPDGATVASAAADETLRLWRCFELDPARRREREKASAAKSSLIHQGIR
UniProt Q96LA8: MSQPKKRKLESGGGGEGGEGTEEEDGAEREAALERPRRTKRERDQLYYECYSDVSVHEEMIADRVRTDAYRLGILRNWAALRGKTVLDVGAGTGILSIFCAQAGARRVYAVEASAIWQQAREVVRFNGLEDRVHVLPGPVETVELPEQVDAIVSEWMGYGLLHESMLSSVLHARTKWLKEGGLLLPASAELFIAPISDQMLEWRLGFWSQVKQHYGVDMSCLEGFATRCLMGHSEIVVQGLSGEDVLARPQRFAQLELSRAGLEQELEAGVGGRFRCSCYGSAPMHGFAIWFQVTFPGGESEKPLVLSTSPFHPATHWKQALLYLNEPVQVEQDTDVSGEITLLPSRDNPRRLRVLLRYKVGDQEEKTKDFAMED

No constants are given. Whether binding was seen depends on the method and setting. Binding seen in cells or lysates may run through a third protein. Some entries that bind do so weakly or less than the wild type.

Turning to CDC20-HA (from UniProt Q12834 1-499), the binding result with CDKN1B-FLAG was “binds”.

For “Cell division cycle 20 (CDC20), endogenous (from UniProt Q12834 1-499)”, the binding result in assay [1] is reported as “binds”.

Regarding “PRMT6 (of the Co-IP in Fig. S5B) (from UniProt Q96LA8 1-375)”, the binding result in assay [2] was “no binding”.

The record behind these values is PMC10063447.
